# Screening data, single-dose tests

Chains of the proteins cited; added tags and fusions are not shown. Residues count along the entry.
UniProt Q8IDJ8, 1-583: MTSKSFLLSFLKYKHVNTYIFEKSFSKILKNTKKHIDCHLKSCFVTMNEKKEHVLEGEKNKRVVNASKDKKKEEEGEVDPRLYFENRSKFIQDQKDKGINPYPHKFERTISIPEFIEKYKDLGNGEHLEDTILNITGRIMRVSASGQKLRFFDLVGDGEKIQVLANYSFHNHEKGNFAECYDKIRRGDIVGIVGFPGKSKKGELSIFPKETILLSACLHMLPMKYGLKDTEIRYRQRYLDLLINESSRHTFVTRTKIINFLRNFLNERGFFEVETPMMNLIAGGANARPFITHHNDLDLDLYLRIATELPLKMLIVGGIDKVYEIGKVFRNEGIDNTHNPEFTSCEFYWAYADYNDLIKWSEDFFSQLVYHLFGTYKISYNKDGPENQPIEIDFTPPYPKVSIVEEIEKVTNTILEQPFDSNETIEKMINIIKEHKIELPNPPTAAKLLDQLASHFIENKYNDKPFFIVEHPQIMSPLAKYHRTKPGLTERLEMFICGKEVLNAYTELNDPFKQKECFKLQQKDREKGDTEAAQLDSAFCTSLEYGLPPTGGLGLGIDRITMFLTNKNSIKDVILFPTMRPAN

Measurements from “University of Dundee, Small-Polar-MMV Screening Library” (2021), ChEMBL document CHEMBL3988442.

T. brucei: 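Whole-parasite assay of Trypanosoma brucei over 72 hours; the read-out is not stated. Concentration: 30 µM. Higher reads as stronger inhibition (inferred: compounds with an IC50 in retests scored well above the rest). Values scatter widely below zero; nearly all retest evidence comes from the higher of the two concentrations used. About 64,000 compounds were tested under these conditions; 1.5% (about 940) showed 50% or more at least once.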
PfKRS1: 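Enzyme assay of the cytosolic lysyl-tRNA synthetase in 384-well plates, read by luminescence. Target: Lysine-tRNA ligase, Plasmodium falciparum 3D7 (UniProt Q8IDJ8). Tested at 30 µM. Direction is inferred from only a few compounds that gave an IC50; most scored high, so higher reads as stronger inhibition. Of about 69,000 compounds tested this way, about 49 (0.071%) reached 50% or more in at least one test.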

Results are given as percent effect.
The controls that fix the scale are not given in the record; negative values are as filed.
Compounds were drawn at random from those tested, without regard to their results.
A dash means the value is not listed here; it may have been measured.

| structure | T. brucei | PfKRS1 |
|---|---|---|
| `COCc1nn(C(C)C)c2c1CCN(Cc1ccccn1)C2.O=C(O)C(F)(F)F.O=C(O)C(F)(F)F` | -4.66% | - |
| `COc1cccc(N2C(=O)CC3(CCCNC3)C2=O)c1` (stereo unspecified) | - | 3.863% |
| `CCn1c(C2CCNCC2)nn(CCn2cncn2)c1=O` | -10.56% | 6.19% |
| `CC(C)C(=O)NC1CC2(CCN(CC(=O)N(C)C)CC2)c2ccccc21.O=C(O)C(F)(F)F` (stereo unspecified) | -88.42% | - |
| `COc1ccc(C)cc1C1(CNc2cn[nH]c(=O)c2Cl)CCOCC1` | 0.6497% | 4.147% |
| `CC(C)N(C)Cc1cnc2n1CCN(C(=O)NC1CCCC1)C2.O=C(O)C(F)(F)F` | -13.72% | - |
| `CCC(C)N(Cc1cccnc1)C(=O)CCSC` (stereo unspecified) | -20.46% | 6.539% |
| `[H][C@]12CCN(C(=O)Cc3cccc(OC)c3)CC[C@@]1([H])S(=O)(=O)N(C)C2` | -14.59% | - |
| `COCCN1CCC(NCc2ccc(C#N)cc2)C1` (stereo unspecified) | 7.408% | 1.611% |
| `Cc1nc(C)n(CC2CCCN2CC(=O)Nc2ccncc2)n1` (stereo unspecified) | -0.04599% | 7.449% |
| `COc1ccc(F)cc1C(C)NC(=O)c1nnc(C)s1` (stereo unspecified) | -103.2% | -0.1% |
| `O=C(NCCCn1cccn1)N1CCCC1c1ccsc1` (stereo unspecified) | -17.34% | 11.34% |
| `COCC(=O)NC(c1ccc(Cl)cc1)C(F)(F)F` (stereo unspecified) | 12.42% | 2.141% |
| `COC[C@@]12CCC[C@@H]1CN(C(=O)CN(C)C)C2` | - | 1.419% |
| `c1cnn(C2CN(CCCOc3ccc4c(c3)OCO4)C2)c1` | -21.78% | -8.093% |
| `CC(O)CNCc1ccc(OCc2ccc3c(c2)OCCO3)cc1` (stereo unspecified) | - | -2.031% |
| `Cc1ccc(C(=O)N2CC[C@H]3[C@@H]2CCC(=O)N3c2cccnc2)o1` | - | 0.9104% |
| `NC(=O)N1CCCN(CCCSCc2ccccc2)CC1` | -18.65% | 3.764% |
| `CSC(C)(C)CNC(=O)NC(c1nnc2n1CCC2)C(C)C` (stereo unspecified) | -4.543% | 6.917% |
| `Cc1noc(Cl)c1CC(=O)N1CCCC(n2cccn2)C1` (stereo unspecified) | 37.24% | -2.705% |
| `O=C(O)c1cc(NS(=O)(=O)c2cccc(Cl)c2F)ccc1Cl` | -20.74% | 3.86% |
| `Cc1nn(C)c(N(C)C)c1CNCc1ccccc1CO` | 0.1242% | 2.213% |
| `O=C(O)C(F)(F)F.[H][C@@]12CCN(C3CCOCC3)C[C@]1([H])O[C@@H](C(=O)N(C)C)C2` | -21.69% | - |
| `Cc1nn(C)c2c(=O)n(CC(=O)NCc3ccccc3Cl)ccc12` | -30.26% | -4.688% |
| `CNC(=O)CN1CCCC12CCN(C(=O)c1ccccc1F)CC2` | - | 3.288% |
| `Cn1cnc(-c2nc(C(=O)NCCN3CCCC3)c3ccccn23)c1` | -55.17% | 2.223% |
| `O=C1C(Sc2cnn[nH]2)CCCN1c1ccccc1F` (stereo unspecified) | -63.84% | -5.638% |
| `Cc1cc(-c2cnc(NC3CC3)nc2-c2ccco2)on1` | 20.38% | 2.529% |
| `[H][C@]12C[C@H](CNC(=O)c3cccn3C)O[C@]1([H])CN(C(=O)c1ccno1)C2` | -48.13% | - |
| `O=C(c1ccccn1)N1CCCN(Cc2nnc(C3CC3)o2)CC1` | 11.29% | 15% |
| `CCOc1cccc(C(=O)N(CCC#N)Cc2ccccn2)c1` | 35.03% | 2.379% |
| `CCn1c(C)nnc1CN(C)C1CCN(CCCSC)C1` (stereo unspecified) | - | -1.355% |
| `Cc1cc(NC(=O)CN2CCCC2c2noc(C(C)C)n2)on1` (stereo unspecified) | 1.303% | 0.9457% |
| `COC(C)(C)CC(C)NCc1cn2ccccc2n1` (stereo unspecified) | -7.939% | 3.082% |
| `[H][C@]12CC[C@]([H])(CN(c3ncccn3)C1)N(C(=O)c1cc(F)ccc1OC)C2` | -14.15% | - |
| `CCc1noc(C(C)N2CCN(c3ncnc4sccc34)CC2)n1` (stereo unspecified) | 25.57% | 6.378% |
| `Cc1ccc(CN2C[C@H]3C(=O)N(CC4CC4)C[C@@]3(C(=O)O)C2)c(F)c1F` | - | 2.612% |
| `Cc1cc(C2CCCN2C(=O)NCc2c(C)cc(C)[nH]c2=O)on1` (stereo unspecified) | 3.67% | 0.427% |
| `Fc1cccc2[nH]c(CN3CCc4cncnc4C3)nc12` | -6.91% | 2.864% |
| `O=C(c1cccc(F)c1)N1CCC2(CC1)CC(N1CCOCC1)C2` | - | 0.547% |
| `CCCc1nnc(NC(C)c2ccc(F)cc2)o1` (stereo unspecified) | -70.4% | 2.401% |
| `COCCN1C(=O)[C@]2(CC[C@@H]3CN(C(=O)NC(C)C)C[C@@H]32)N=C1C` | - | 8.09% |
| `O=C(NCc1ccccc1CO)Nc1ccc2c(c1)CCC2` | -29.49% | 2.554% |
| `COc1ncccc1CNC(=O)Nc1cccnc1N1CCCC1` | -40.02% | 0.6846% |
| `Cc1cnn(CC2CC2)c1NC(=O)c1cccnc1O` | -49.26% | -2.046% |
| `CC(C)C(NC(=O)C1CC1)c1cc(O)nc(-c2cccnc2)n1` (stereo unspecified) | 0.354% | 1.585% |

Once more, the final 2:

structure	T. brucei	PfKRS1
Cc1cnn(CC2CC2)c1NC(=O)c1cccnc1O	-49.26%	-2.046%
CC(C)C(NC(=O)C1CC1)c1cc(O)nc(-c2cccnc2)n1 (stereo unspecified)	0.354%	1.585%